Assay results as given in PubChem BioAssay AID330 (DTP/NCI, 2004).
The list is a part of this screen's results and no random one: it gathers some chemical classes. Not every dose and run of a compound is shown. T/C: endpoint of the treated group in % of that of the vehicle group. Some entries give survivors of the animals treated and no T/C: the source holds a T/C of zero for them, seemingly a mark for toxic or unscored doses. Some doses without a T/C left all or most animals alive at the check, yet need not have been tolerated: survival well below the control is almost never listed, so the zero probably covers shortened survival too. Survivors were counted at the toxicity check, usually on the fifth day, unless a day is given; later deaths do not show. Schedules are NCI's codes, taken here to give the interval after Q, in days (D) or hours (H), and the number of doses after X. For survival time, this PubChem deposit counts one and a half times the control or more as active, and values a quarter to a half above the control carry no call in these data; other NCI protocols may use other cut-offs. Some T/C values are followed by the survivors on the day toxicity was checked, most often the fifth; where neither a count nor a note follows, no animal had died by that day. Some entries were tested several times; the results are listed from low to high. Some entries show no survivor count and are marked so; the dose need not have been tolerated. Some metal complexes and salts are drawn in pieces, as in the source, so charges may not balance.

System: P388 leukemia ip, CD2F1 mice, survival T/C
Assay: NCI In Vivo Anticancer Drug Screen. Data for tumor model P388 Leukemia (intraperitoneal) in CD2F1 (CDF1) mice
Conditions: T/C endpoint: median survival time, higher T/C = longer survival
[1] = dose: 50.0 mg/kg/injection, schedule: Q01DX009 (ip), vehicle: saline
[2] = dose: 100.0 mg/kg/injection, schedule: Q01DX009 (ip), vehicle: saline
[3] = dose: 200.0 mg/kg/injection, schedule: Q01DX009 (ip), vehicle: saline
[4] = dose: 100.0 mg/kg/injection, schedule: Q01DX001 (ip), vehicle: Klucel (hydroxypropylcellulose) (HPC)
[5] = dose: 200.0 mg/kg/injection, schedule: Q01DX001 (ip), vehicle: Klucel (hydroxypropylcellulose) (HPC)
[6] = dose: 400.0 mg/kg/injection, schedule: Q01DX001 (ip), vehicle: Klucel (hydroxypropylcellulose) (HPC)
[7] = dose: 50.0 mg/kg/injection, schedule: Q01DX009 (ip), vehicle: Klucel (hydroxypropylcellulose) (HPC)
[8] = dose: 100.0 mg/kg/injection, schedule: Q01DX009 (ip), vehicle: Klucel (hydroxypropylcellulose) (HPC)
[9] = dose: 200.0 mg/kg/injection, schedule: Q01DX009 (ip), vehicle: Klucel (hydroxypropylcellulose) (HPC)
[10] = dose: 12.5 mg/kg/injection, schedule: Q01DX009 (ip), vehicle: Klucel (hydroxypropylcellulose) (HPC)

For `O=C(O)COc1cccc(CN(CCCl)CCCl)c1`, the T/C (dose: 0.15 mg/kg/injection, schedule: Q01DX009 (ip), vehicle: saline) was 112 % of control, the T/C (dose: 0.15 mg/kg/injection, schedule: Q04DX003 (ip), vehicle: saline with Tween-80) was 140 % of control and the T/C (dose: 0.3 mg/kg/injection, schedule: Q01DX009 (ip), vehicle: saline) was 120 % of control. The T/C (dose: 0.3 mg/kg/injection, schedule: Q04DX003 (ip), vehicle: saline with Tween-80) was 150 % of control, the T/C (dose: 0.6 mg/kg/injection, schedule: Q01DX009 (ip), vehicle: saline) was 141 % of control and the T/C (dose: 0.6 mg/kg/injection, schedule: Q04DX003 (ip), vehicle: saline with Tween-80) was 168 % of control [5 of 6 alive]. For the same compound, the survivor count (dose: 4.0 mg/kg/injection, schedule: Q04DX003 (ip), vehicle: saline) was 4 of 6, the T/C (dose: 5.0 mg/kg/injection, schedule: Q04DX003 (ip), vehicle: saline) was 168 % of control and the survivor count (dose: 6.0 mg/kg/injection, schedule: Q04DX003 (ip), vehicle: saline) was 1 of 6. For the same compound, the survivor count (dose: 9.0 mg/kg/injection, schedule: Q04DX003 (ip), vehicle: saline) was 0 of 6, the survivor count (dose: 10.0 mg/kg/injection, schedule: Q04DX003 (ip), vehicle: saline) was 6 of 6 and the survivor count (dose: 20.0 mg/kg/injection, schedule: Q04DX003 (ip), vehicle: saline) was 3 of 6. The survivor count (dose: 100.0 mg/kg/injection, schedule: Q04DX003 (ip), vehicle: saline with Tween-80) was 0 of 6, the survivor count (dose: 200.0 mg/kg/injection, schedule: Q04DX003 (ip), vehicle: saline with Tween-80) was 0 of 6 and the survivor count (dose: 400.0 mg/kg/injection, schedule: Q04DX003 (ip), vehicle: saline with Tween-80) was 0 of 6.
`CC(=O)C1CCN(C)CC1.O=[N+]([O-])c1cc([N+](=O)[O-])c(O)c([N+](=O)[O-])c1` was tested, and the T/C (dose: 30.0 mg/kg/injection, schedule: Q01DX005 (ip), vehicle: Klucel (hydroxypropylcellulose) (HPC)) was 101 % of control, the T/C (dose: 60.0 mg/kg/injection, schedule: Q01DX005 (ip), vehicle: Klucel (hydroxypropylcellulose) (HPC)) was 101 % of control and the T/C (dose: 120.0 mg/kg/injection, schedule: Q01DX005 (ip), vehicle: Klucel (hydroxypropylcellulose) (HPC)) was 102 % of control. For the same compound, the survivor count (dose: 240.0 mg/kg/injection, schedule: Q01DX005 (ip), vehicle: Klucel (hydroxypropylcellulose) (HPC)) was 4 of 6.
With `CS(=O)(=O)OC1CSCC1OS(C)(=O)=O` (configuration not stated) the T/C [1] was 96 % of control [5 of 6 alive], the T/C [2] was 87 % of control and the survivor count [3] was 6 of 6.
For `[Co].[N-]=[N+]=N.[N-]=[N+]=N.[N-]=[N+]=N.[NH-]CC[N-]CC[NH-]`, the T/C (dose: 6.25 mg/kg/injection, schedule: Q01DX009 (ip), vehicle: DMSO) was 98 % of control [survivor count not shown] and the T/C (dose: 12.5 mg/kg/injection, schedule: Q01DX009 (ip), vehicle: DMSO) was 93 % of control [survivor count not shown].
In the case of `COC(=O)C(CCl)(NC(C)=O)SC(C)=O` (configuration not stated), the T/C (dose: 25.0 mg/kg/injection, schedule: Q01DX001 (ip), vehicle: Klucel (hydroxypropylcellulose) (HPC)) is reported as 105 % of control, the T/C (dose: 50.0 mg/kg/injection, schedule: Q01DX001 (ip), vehicle: Klucel (hydroxypropylcellulose) (HPC)) is reported as 99 % of control and the T/C [4] is reported as 91 % of control. For the same compound, the survivor count [4] was 3 of 6, the survivor count [5] was 2 of 6 and the survivor count [6] was 0 of 6.
With `CONC(=O)NP(=O)(N1CC1(C)C)N1CC1(C)C` (configuration not stated) the T/C (dose: 25.0 mg/kg/injection, schedule: Q01DX009 (ip), vehicle: Klucel (hydroxypropylcellulose) (HPC)) was 132 % of control, the T/C [7] was 119 and 148 % of control and the T/C [8] was 153 and 174 % of control. The T/C [9] was 139 and 177 % of control.
`C1CN1.Nc1ncnc2nc[nH]c12` was tested, and the T/C (dose: 12.5 mg/kg/injection, schedule: Q01DX009 (ip), vehicle: saline) was 108 [5 of 6 alive] and 109 % of control, the T/C (dose: 12.5 mg/kg/injection, schedule: Q04DX003 (ip), vehicle: saline) was 97 % of control and the T/C (dose: 25.0 mg/kg/injection, schedule: Q01DX009 (ip), vehicle: saline) was 100 [5 of 6 alive] and 108 % of control. The T/C (dose: 25.0 mg/kg/injection, schedule: Q04DX003 (ip), vehicle: saline) was 97 % of control, the T/C [1] was 98, 103 [5 of 6 alive], 104, 111 % of control and the T/C (dose: 50.0 mg/kg/injection, schedule: Q04DX003 (ip), vehicle: saline) was 98 % of control. For the same compound, the T/C [2] was 88, 107 [5 of 6 alive], 108 [5 of 6 alive], 124 % of control, the T/C (dose: 100.0 mg/kg/injection, schedule: Q04DX002 (ip), vehicle: saline) was 107 % of control and the T/C (dose: 100.0 mg/kg/injection, schedule: Q04DX003 (ip), vehicle: saline) was 98 % of control. For the same compound, the T/C [3] was 86 % of control [5 of 6 alive], the survivor count [3] was 3 of 6 and the T/C (dose: 200.0 mg/kg/injection, schedule: Q04DX002 (ip), vehicle: saline) was 108 % of control. For the same compound, the T/C (dose: 200.0 mg/kg/injection, schedule: Q04DX003 (ip), vehicle: saline) was 96 % of control, the T/C (dose: 400.0 mg/kg/injection, schedule: Q04DX002 (ip), vehicle: saline) was 101 % of control and the T/C (dose: 400.0 mg/kg/injection, schedule: Q04DX003 (ip), vehicle: saline) was 99 % of control.
`COc1ccccc1N1CC=C(c2ccc(Cl)cc2)OP1(=O)Cl` (configuration not stated) was tested, and the T/C (dose: 100.0 mg/kg/injection, schedule: Q04DX002 (ip), vehicle: saline with Tween-80) was 100 % of control, the T/C (dose: 200.0 mg/kg/injection, schedule: Q04DX002 (ip), vehicle: saline with Tween-80) was 100 % of control [5 of 6 alive] and the T/C (dose: 400.0 mg/kg/injection, schedule: Q04DX002 (ip), vehicle: saline with Tween-80) was 100 % of control.
For `Cn1c(=O)ccc2ccc(N(CCO)CCCl)nc21`, the T/C (dose: 6.25 mg/kg/injection, schedule: Q01DX005 (ip), vehicle: Klucel (hydroxypropylcellulose) (HPC)) was 101 % of control, the T/C (dose: 12.5 mg/kg/injection, schedule: Q01DX005 (ip), vehicle: Klucel (hydroxypropylcellulose) (HPC)) was 103 % of control [5 of 6 alive] and the T/C (dose: 25.0 mg/kg/injection, schedule: Q01DX005 (ip), vehicle: Klucel (hydroxypropylcellulose) (HPC)) was 97 % of control. The T/C (dose: 50.0 mg/kg/injection, schedule: Q04DX003 (ip), vehicle: Klucel (hydroxypropylcellulose) (HPC)) was 94 % of control, the survivor count (dose: 100.0 mg/kg/injection, schedule: Q04DX003 (ip), vehicle: Klucel (hydroxypropylcellulose) (HPC)) was 2 of 6 and the survivor count (dose: 200.0 mg/kg/injection, schedule: Q04DX003 (ip), vehicle: Klucel (hydroxypropylcellulose) (HPC)) was 0 of 6.
In the case of `C[As+](C)(C)CCO`, the T/C [1] is reported as 92 % of control, the T/C [2] is reported as 106 % of control and the T/C [3] is reported as 98 % of control [5 of 6 alive].
`O=c1c2ccccc2c(=O)n2n1P(Cl)CP2Cl` (configuration not stated) was tested, and the T/C (dose: 60.0 mg/kg/injection, schedule: Q01DX005 (ip), vehicle: saline with Tween-80) was 92 % of control, the T/C (dose: 120.0 mg/kg/injection, schedule: Q01DX005 (ip), vehicle: saline with Tween-80) was 92 % of control and the survivor count (dose: 240.0 mg/kg/injection, schedule: Q01DX005 (ip), vehicle: saline with Tween-80) was 0 of 6.
In the case of `CCC(COB(OCC(CC)[N+](=O)[O-])OCC(CC)[N+](=O)[O-])[N+](=O)[O-]` (configuration not stated), the T/C [1] is reported as 96 % of control, the T/C [2] is reported as 97 % of control [5 of 6 alive] and the T/C [3] is reported as 88 % of control.
For `CCCCCCCCCCCCCCCCCC[N+](C)(C)C.F[P-](F)(F)(F)(F)F`, the T/C (dose: 3.12 mg/kg/injection, schedule: Q01DX009 (ip), vehicle: Klucel (hydroxypropylcellulose) (HPC)) was 111 and 123 % of control, the T/C (dose: 6.25 mg/kg/injection, schedule: Q01DX009 (ip), vehicle: Klucel (hydroxypropylcellulose) (HPC)) was 120 and 131 % of control and the T/C [10] was 87 % of control. The survivor count [10] was 6 of 6, the survivor count [7] was 0 of 6 and the survivor count [8] was 0 of 6. The survivor count [9] was 0 of 6.
With `CCOP(=O)(O)CC` the T/C [4] was 97 % of control [survivor count not shown], the T/C [5] was 91 % of control [survivor count not shown] and the T/C [6] was 91 % of control [survivor count not shown].
